Results from patent US20130060004 (published 2013).
Square brackets hold non-standard residues; d marks the D form. * marks the point of attachment. His(Trt) = N[C@@H](Cc1cn(C(c2ccccc2)(c2ccccc2)c2ccccc2)cn1)C(=O)O; pGlu = O=C1CC[C@@H](C(=O)O)N1; Boc = CC(C)(C)OC(=O)*; tBu = CC(C)(C)*

Legend:
[1] = general procedure: hybrid (solid and solution phase) peptide synthesis; 2-CTC resin; DIC/6-Cl-HOBt (fragment coupling: DIC/6-Cl-HOBt, DIC/HOBt, HBTU/HOBt/DIEA or DIC); conditions: purification step, acetate
[2] = general procedure: hybrid (solid and solution phase) peptide synthesis; 2-chlorotrityl chloride resin or ethylamine 2-chlorotrityl resin; DIC/6-Cl-HOBt (fragment coupling: DIC/6-Cl-HOBt, DIC/HOBt, HBTU/HOBt/DIEA or DIC); conditions: acetate

Row | Substance | final HPLC purity ([1]; HPLC) [%] | step yield [1] [%] | final HPLC purity ([2]; purification step, HPLC) [%] | step yield ([2]; purification step) [%] | final purity (method not given) ([2]; whole synthesis, HPLC)
1 | [pGlu][His(Trt)]W(Boc)S(tBu)Y(tBu)[dL]L-OH | 83 | 80 | – | – | –
2 | 5-oxo-L-prolyl-L-histidyl-L-tryptophyl-L-seryl-L-tyrosyl-D-leucyl-L-leucyl-L-arginyl-N-ethyl-L-prolinamide | – | – | 80 | 85 | more than 98.5%
